Experimental data: PubChem BioAssay AID1224830 (NIAID, 2016)

Aim: 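Regulators of TLR4 signalling towards TNF-alpha in macrophage-like cells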 (primary screen)
Cell system: human THP-1 monocytic leukaemia cells, TNF dual-luciferase reporter clone, PMA-differentiated to macrophage-like cells
Reagents: siRNA pool against human genes, 50 nM
Timing: LPS for 4 h, given about 3 days after siRNA transfection
Conditions: bacterial LPS (TLR4 ligand), 10 ng/ml
Measured: 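TNF firefly reporter luminescence divided by renilla, normalised to the plate median, then turned into a robust z-score for each replicate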
Reading the numbers: TNF reporter robust z-score: higher = stronger TNF reporter response to LPS
Call rule: 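a well is active when its z-score exceeds 2.8 or falls below -1.5; control wells carry no call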
The deposit covers about 18,000 reagents; shown is a part drawn at random. Over the whole deposit, about 2,900 (16%) were called active. 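Calls are made per well; low scores hint the gene aids the LPS response, high scores that it dampens it.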 A number with no mark means an inactive call. Repeated entries: four replicate wells of each siRNA pool.

TNF reporter robust z-score | Gene
2.25 | PHOSPHO2 (phosphatase, orphan 2)
0.98 | PHOSPHO2 (phosphatase, orphan 2)
1.4 | PHOSPHO2 (phosphatase, orphan 2)
-0.65 | PHOSPHO2 (phosphatase, orphan 2)
0.39 | OR6N2 (olfactory receptor family 6 subfamily N member 2)
0.84 | OR6N2 (olfactory receptor family 6 subfamily N member 2)
0.96 | OR6N2 (olfactory receptor family 6 subfamily N member 2)
1.82 | OR6N2 (olfactory receptor family 6 subfamily N member 2)
0.3 | IL9R (interleukin 9 receptor)
0.95 | IL9R (interleukin 9 receptor)
0.22 | IL9R (interleukin 9 receptor)
1 | IL9R (interleukin 9 receptor)
-0.22 | SLK (STE20 like kinase)
0.05 | SLK (STE20 like kinase)
-0.03 | SLK (STE20 like kinase)
1.07 | SLK (STE20 like kinase)
1.4 | IRS2 (insulin receptor substrate 2)
1.25 | IRS2 (insulin receptor substrate 2)
0.02 | IRS2 (insulin receptor substrate 2)
0.12 | IRS2 (insulin receptor substrate 2)
-0.23 | PPP2R2B (protein phosphatase 2 regulatory subunit Bbeta)
0.16 | PPP2R2B (protein phosphatase 2 regulatory subunit Bbeta)
-0.5 | PPP2R2B (protein phosphatase 2 regulatory subunit Bbeta)
0.38 | PPP2R2B (protein phosphatase 2 regulatory subunit Bbeta)
-0.31 | ADAM29 (ADAM metallopeptidase domain 29)
-0.37 | ADAM29 (ADAM metallopeptidase domain 29)
1.6 | ADAM29 (ADAM metallopeptidase domain 29)
-0.19 | ADAM29 (ADAM metallopeptidase domain 29)
-0.64 | TMEM196 (transmembrane protein 196)
-0.39 | TMEM196 (transmembrane protein 196)
-1.01 | TMEM196 (transmembrane protein 196)
-0.31 | TMEM196 (transmembrane protein 196)
0.62 | SALL1 (spalt like transcription factor 1)
1.29 | SALL1 (spalt like transcription factor 1)
1.78 | SALL1 (spalt like transcription factor 1)
2.1 | SALL1 (spalt like transcription factor 1)
-0.96 | KNG1 (kininogen 1)
2.2 | KNG1 (kininogen 1)
2.63 | KNG1 (kininogen 1)
1.96 | KNG1 (kininogen 1)
0.54 | TREM1 (triggering receptor expressed on myeloid cells 1)
0.39 | TREM1 (triggering receptor expressed on myeloid cells 1)
-0.95 | TREM1 (triggering receptor expressed on myeloid cells 1)
-0.57 | TREM1 (triggering receptor expressed on myeloid cells 1)
-0.19 | ZNF581 (zinc finger protein 581)
-1.14 | ZNF581 (zinc finger protein 581)
-0.76 | ZNF581 (zinc finger protein 581)
0.72 | ZNF581 (zinc finger protein 581)
0.15 | BNC2 (basonuclin zinc finger protein 2)
0.83 | BNC2 (basonuclin zinc finger protein 2)
1.13 | BNC2 (basonuclin zinc finger protein 2)
0.61 | BNC2 (basonuclin zinc finger protein 2)
2.21 | ISX (intestine specific homeobox)
2.45 | ISX (intestine specific homeobox)
4.46 (active) | ISX (intestine specific homeobox)
1.68 | ISX (intestine specific homeobox)
-0.79 | EMILIN1 (elastin microfibril interfacer 1)
-0.89 | EMILIN1 (elastin microfibril interfacer 1)
-0.8 | EMILIN1 (elastin microfibril interfacer 1)
-0.92 | EMILIN1 (elastin microfibril interfacer 1)
2.1 | GAS2L1 (growth arrest specific 2 like 1)
3.31 (active) | GAS2L1 (growth arrest specific 2 like 1)
0.25 | GAS2L1 (growth arrest specific 2 like 1)
0.04 | GAS2L1 (growth arrest specific 2 like 1)
-1.31 | NDUFS7 (NADH:ubiquinone oxidoreductase core subunit S7)
-0.88 | NDUFS7 (NADH:ubiquinone oxidoreductase core subunit S7)
-0.95 | NDUFS7 (NADH:ubiquinone oxidoreductase core subunit S7)
-0.55 | NDUFS7 (NADH:ubiquinone oxidoreductase core subunit S7)
1.5 | XKRX (XK related X-linked)
0.46 | XKRX (XK related X-linked)
1.15 | XKRX (XK related X-linked)
0.09 | XKRX (XK related X-linked)
-0.02 | PAGE3 (PAGE family member 3)
0.55 | PAGE3 (PAGE family member 3)
-0.11 | PAGE3 (PAGE family member 3)
1.46 | PAGE3 (PAGE family member 3)
-1.29 | CACNA1I (calcium voltage-gated channel subunit alpha1 I)
-0.85 | CACNA1I (calcium voltage-gated channel subunit alpha1 I)
-0.33 | CACNA1I (calcium voltage-gated channel subunit alpha1 I)
-0.35 | CACNA1I (calcium voltage-gated channel subunit alpha1 I)
0.23 | NKD2 (NKD inhibitor of Wnt signaling pathway 2)
0.54 | NKD2 (NKD inhibitor of Wnt signaling pathway 2)
0.83 | NKD2 (NKD inhibitor of Wnt signaling pathway 2)
0.28 | NKD2 (NKD inhibitor of Wnt signaling pathway 2)
-0.14 | ASB5 (ankyrin repeat and SOCS box containing 5)
0 | ASB5 (ankyrin repeat and SOCS box containing 5)
-1.36 | ASB5 (ankyrin repeat and SOCS box containing 5)
0.08 | ASB5 (ankyrin repeat and SOCS box containing 5)
0.17 | LAS1L (LAS1 like ribosome biogenesis factor)
-0.22 | LAS1L (LAS1 like ribosome biogenesis factor)
-0.09 | LAS1L (LAS1 like ribosome biogenesis factor)
1.63 | LAS1L (LAS1 like ribosome biogenesis factor)
0.12 | MCM2 (minichromosome maintenance complex component 2)
-0.28 | MCM2 (minichromosome maintenance complex component 2)
0.13 | MCM2 (minichromosome maintenance complex component 2)
1.41 | MCM2 (minichromosome maintenance complex component 2)
0.14 | SELENOF (selenoprotein F)
0.69 | SELENOF (selenoprotein F)
0.3 | SELENOF (selenoprotein F)
-0.64 | SELENOF (selenoprotein F)
-0.3 | SAAL1 (serum amyloid A like 1)
3.48 (active) | SAAL1 (serum amyloid A like 1)
3.37 (active) | SAAL1 (serum amyloid A like 1)
0.2 | SAAL1 (serum amyloid A like 1)
-0.51 | PLS1 (plastin 1)
-0.15 | PLS1 (plastin 1)
0.57 | PLS1 (plastin 1)
0.37 | PLS1 (plastin 1)
0.31 | CIAO2B (cytosolic iron-sulfur assembly component 2B)
-0.08 | CIAO2B (cytosolic iron-sulfur assembly component 2B)
0.06 | CIAO2B (cytosolic iron-sulfur assembly component 2B)
0.66 | CIAO2B (cytosolic iron-sulfur assembly component 2B)

15 entries from above in another layout.
TNF reporter robust z-score	Gene
0.46	XKRX (XK related X-linked)
1.15	XKRX (XK related X-linked)
0.09	XKRX (XK related X-linked)
-0.02	PAGE3 (PAGE family member 3)
0.55	PAGE3 (PAGE family member 3)
-0.11	PAGE3 (PAGE family member 3)
1.46	PAGE3 (PAGE family member 3)
-1.29	CACNA1I (calcium voltage-gated channel subunit alpha1 I)
-0.85	CACNA1I (calcium voltage-gated channel subunit alpha1 I)
-0.33	CACNA1I (calcium voltage-gated channel subunit alpha1 I)
-0.35	CACNA1I (calcium voltage-gated channel subunit alpha1 I)
0.23	NKD2 (NKD inhibitor of Wnt signaling pathway 2)
0.54	NKD2 (NKD inhibitor of Wnt signaling pathway 2)
0.83	NKD2 (NKD inhibitor of Wnt signaling pathway 2)
0.28	NKD2 (NKD inhibitor of Wnt signaling pathway 2)
